Experimental findings from the supplement of paper PMC10338343 are described below.

± gives the standard deviation. The list shows a part of the results, in another mix than the full data. Many entries were measured with a wide error. The list shows a part of the results.

The subject of assay [1] is MILI (PIWIL2) piRISC loaded with L1MC piRNA (26 nt). As to the kind of experiment: pre-steady-state target cleavage rate (min^-1); higher = faster piRNA-guided slicing of the target. The note with it: guide: L1MC piRNA 5'p-UAACUAAAUACUAUGCAAGCUGUAGG
Summed up:
(§1)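 At 33 °C in HEPES–potassium acetate buffer, a transcribed, DNA-blocked target RNA library […] was exposed for 0–8 or 0–960 min to 1 nM active affinity-purified piRISC carrying a single synthetic guide, with or without 500 nM GTSF1 partner protein. Uncleaved targets were sequenced and normalised to depth and to weakly complementary targets. With three trials pooled and k3 capped at 0.0001 min^-1, a burst-and-steady-state fit produced the pre-steady-state cleavage rate.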

Assay [2] relates to EfPiwi piRISC loaded with L1MC piRNA (26 nt). As to the kind of experiment: pre-steady-state target cleavage rate (min^-1); guide: L1MC piRNA 5'p-UAACUAAAUACUAUGCAAGCUGUAGG; MIWI and MILI are mouse PIWI proteins and EfPiwi is from a freshwater sponge; tags in brackets are library labels; higher = faster piRNA-guided slicing of the target. The procedure, abridged: as §1
Setting [3] is: auxiliary factor: 500 nM mouse GTSF1.
The mark [4] stands for this setting: auxiliary factor: none (no GTSF1).
Setting [5] is: auxiliary factor: 500 nM Ephydatia muelleri Gtsf1.
Where [6] appears, read: auxiliary factor: none (no Gtsf1).

Regarding UCCUGGAUGAGCUUGCAUACUUUUUAGUUA, the “pre-steady-state target cleavage rate” value in assay [1] (setting [3]) came to 0.00156 ± 0.0067; in assay [1] (setting [4]) it was 0.00199 ± 0.0035; in assay [2] (setting [5]), 0.000801 ± 0.0093.
Regarding UCCUGGAUCAGCUUGCAUUCUAUUUAGUUA, the “pre-steady-state target cleavage rate” value in assay [1] (setting [3]) is 0.0266 ± 0.0066; in assay [1] (setting [4]), 0.00119 ± 0.0045; in assay [2] (setting [5]) it was 0.00166 ± 0.0032.
UCCUGGAACAGCUUGCAUAGUAGUUAGUUA: the entries for the “pre-steady-state target cleavage rate” value in assay [1] (setting [3]), in assay [1] (setting [4]) and in assay [2] (setting [5]) were 0.138 ± 0.018, 0.00378 ± 0.0026 and 0.00926 ± 0.0027, respectively.
On to UCCUCCUACAGCUUGCAUAGUAUUUACUAA, for which the “pre-steady-state target cleavage rate” value in assay [1] (setting [3]) turned out to be 0.114 ± 0.027; in assay [1] (setting [4]), 0.00139 ± 0.0043; in assay [2] (setting [5]), 0.00569 ± 0.003.
For the sequence UCCUGGAACAGGUUGCAUAGUAUAUAGUUA, the figures for the “pre-steady-state target cleavage rate” value in assay [1] (setting [3]), in assay [1] (setting [4]) and in assay [2] (setting [5]) were 0.211 ± 0.023, 0.00891 ± 0.0023 and 0.0101 ± 0.0045, respectively.
In the case of UCCUGGUACAGCUUGCAAGUAUUUAGUUA, the “pre-steady-state target cleavage rate” value in assay [1] (setting [3]) was 0.113 ± 0.014; in assay [1] (setting [4]), 0.00636 ± 0.0022; in assay [2] (setting [6]), 0.000822 ± 0.012.
With UCCUCCUACAGCUUGCAUAGUAUUUACGUUA, the “pre-steady-state target cleavage rate” value in assay [1] (setting [3]) was 0.265 ± 0.029; in assay [1] (setting [4]), 0.00757 ± 0.0026; in assay [2] (setting [5]) it was 0.00783 ± 0.0029.
With UCCUGGAACCGCUUGCAUAGUAUUUAGUUA, the “pre-steady-state target cleavage rate” value in assay [1] (setting [3]) was 0.265 ± 0.015; in assay [1] (setting [4]) it was 0.0108 ± 0.002; in assay [2] (setting [5]), 0.0172 ± 0.0054.
As to UCCUGGUACAGCUUGCUUACUAUUUAGUUA, the “pre-steady-state target cleavage rate” value was found to be 0.0679 ± 0.012 in assay [1] (setting [3]), 0.00375 ± 0.0027 in assay [1] (setting [4]) and 0.000749 ± 0.011 in assay [2] (setting [6]).
UCCUGGAUGUCGAUGGAUAGUAUUUAGUAA: the “pre-steady-state target cleavage rate” value in assay [1] (setting [3]) was determined as 0.00684 ± 0.0036; in assay [1] (setting [4]), 0.000511 ± 0.0084; in assay [2] (setting [5]) it was 0.000303 ± 0.0088.
As for UCCUGGAUCAGCUUGCAUACUUUUUAGUUA, the “pre-steady-state target cleavage rate” value in assay [1] (setting [3]) came to 0.00227 ± 0.0053; in assay [1] (setting [4]), 0.00168 ± 0.0041; in assay [2] (setting [5]) it was 0.00206 ± 0.003.
Consider UCCUGGAUGUCCUUGCAUAGUGUUUAGUUA, for which the entries for the “pre-steady-state target cleavage rate” value in assay [1] (setting [3]), in assay [1] (setting [4]) and in assay [2] (setting [5]) were 0.0572 ± 0.012, 0.00445 ± 0.0025 and 0.00951 ± 0.0035, respectively.
